Some of these results come from one statement about several compounds together.
Biological target: T1, TYK2 kinase domain (Homo sapiens, UniProt P29597)
T1 construct: made in house; host or cells: SF9 insect cells (recombinant baculovirus)
T1 sequence (P29597 873-1187): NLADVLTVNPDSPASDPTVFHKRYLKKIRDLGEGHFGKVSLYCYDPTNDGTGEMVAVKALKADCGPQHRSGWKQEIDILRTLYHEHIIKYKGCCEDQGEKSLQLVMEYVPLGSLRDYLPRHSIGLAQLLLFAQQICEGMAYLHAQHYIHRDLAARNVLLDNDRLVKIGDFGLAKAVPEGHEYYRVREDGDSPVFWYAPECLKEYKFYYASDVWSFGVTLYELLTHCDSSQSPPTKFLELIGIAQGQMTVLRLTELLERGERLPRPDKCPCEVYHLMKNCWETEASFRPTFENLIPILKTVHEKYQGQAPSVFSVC
Experiment: TYK2 inhibition assay (Caliper LabChip, isolated kinase domain)
Assay type: biochemical
Conditions: 25 uM ATP, values given as 'about'
From the text: The catalytically active kinase domain of human JAK1, JAK2, JAK3 or TYK2 was purified from extracts of SF9 insect cells infected with a recombinant baculovirus expression vector encoding the human JAK1, JAK2, JAK3 or TYK2 kinase domains (JAK1 amino acid residues N852-D1154 according to the numbering of GenBank sequence accession number P23458, JAK2 amino acid residues D812-G1132 according to the numbering of GenBank sequence accession number NP_004963.1; JAK3 amino acid residues S783-S1124 according to the numbering of GenBank sequence accession number P52333, and TYK2 amino acid residues N873-C1187 according to the numbering of GenBank sequence accession number P29597). The activity of the JAK1, JAK2, JAK3 or TYK2 kinase domains can be measured by a number of direct and indirect methods, including quantification of phosphorylation of peptide substrates derived from the human JAK3 protein (Saltzman et al., Biochem. Biophys. Res. Commun. 246:627-633 (2004)). The activity of the JAK1, JAK2, JAK3 or TYK2 kinase domains was measured in vitro by monitoring phosphorylation of JAK3 derived peptides using the Caliper LabChip technology (see Examples).
The activity of the isolated JAK1, JAK2 or TYK2 kinase domain was measured by monitoring phosphorylation of a peptide derived from JAK3 (SEQ ID NO:1 […] fluorescently labeled on the N-terminus with 5-carboxyfluorescein using the Caliper LabChip technology (Caliper Life Sciences, Hopkinton, Mass.). […] Reactions were incubated at 22° C. in 384-well polypropylene microtiter plates for 30 minutes and then stopped by addition of 25 uL of an EDTA containing solution (100 mM Hepes pH 7.2, 0.015% Brij-35, 150 mM EDTA), resulting in a final EDTA concentration of 50 mM. After termination of the kinase reaction, the proportion of phosphorylated product was determined as a fraction of total peptide substrate using the Caliper LabChip 3000 according to the manufacturer's specifications. Ki values were then determined using the Morrison tight binding model. Morrison, J. F., Biochim. Biophys. Acta. 185:269-296 (1969); William, J. W. and Morrison, J. F., Meth. Enzymol., 63:437-467 (1979).

| SMILES | Ki [µM] |
| --- | --- |
| Cc1ccc(F)c(C(=O)Nc2ccncc2)c1Cl [Example 16, 2-chloro-6-fluoro-3-methyl-N-(pyridin-4-yl)benzamide] | < 3.5 |
| Cc1ccc(Cl)c(C(=O)Nc2ccncc2)c1F [Example 17, 6-chloro-2-fluoro-3-methyl-N-(pyridin-4-yl)benzamide] | < 3.5 |
| O=C(Nc1ccncc1)c1c(Cl)ccc([N+](=O)[O-])c1Cl [Example 18, 2,6-dichloro-3-nitro-N-(pyridin-4-yl)benzamide] | < 3.5 |
| O=C(Nc1ccncc1)c1c(Cl)cccc1[N+](=O)[O-] [Example 19, 2-chloro-6-nitro-N-(pyridin-4-yl)benzamide] | < 3.5 |
| Nc1ccc(Cl)c(C(=O)Nc2ccncc2)c1Cl [Example 20, 3-amino-2,6-dichloro-N-(pyridin-4-yl)benzamide] | < 3.5 |
| CC(=O)Nc1ccc(Cl)c(C(=O)Nc2ccncc2)c1Cl [Example 22, 3-acetamido-2,6-dichloro-N-(pyridin-4-yl)benzamide] | < 3.5 |
| CS(=O)(=O)Nc1ccc(Cl)c(C(=O)Nc2ccncc2)c1Cl [Example 24, 2,6-dichloro-3-(methylsulfonamido)-N-(pyridin-4-yl)benzamide] | < 3.5 |
| O=C(Nc1ccncc1)c1c(Cl)cncc1Cl [Example 26, 3,5-dichloro-N-(pyridin-4-yl)isonicotinamide] | < 3.5 |
| O=C(Nc1ccncc1)c1c(F)cncc1F [Example 27, 3,5-difluoro-N-(pyridin-4-yl)isonicotinamide] | < 3.5 |
| O=C(COCc1ccccc1)Nc1cc(NC(=O)c2c(Cl)cccc2Cl)ccn1 [Example 28, N-(2-(2-(benzyloxy)acetamido)pyridin-4-yl)-2,6-dichlorobenzamide] | < 3.5 |
| O=C(Nc1ccnc(Nc2nncs2)c1)c1c(Cl)cccc1Cl [Example 31, N-(2-(1,3,4-thiadiazol-2-ylamino)pyridin-4-yl)-2,6-dichlorobenzamide] | < 3.5 |
| O=C(Nc1ccnc(NC(=O)C2CCCCC2)c1)c1c(Cl)cccc1Cl [Example 37, 2,6-dichloro-N-(2-(cyclohexanecarboxamido)-pyridin-4-yl)benzamide] | < 3.5 |
| N#CCC(=O)Nc1cc(NC(=O)c2c(Cl)cccc2Cl)ccn1 [Example 38, 2,6-dichloro-N-(2-(2-cyanoacetamido)pyridin-4-yl)benzamide] | < 3.5 |
| COCC(=O)Nc1cc(NC(=O)c2c(Cl)cccc2Cl)ccn1 [Example 39, 2,6-dichloro-N-(2-(2-methoxyacetamido)pyridin-4-yl)benzamide] | < 3.5 |
| CC1(C(=O)Nc2cc(NC(=O)c3c(Cl)cccc3Cl)ccn2)CC1 [Example 40, 2,6-dichloro-N-(2-(1-methylcyclopropanecar-boxamido)pyridin-4-yl)benzamide] | < 3.5 |
| O=C(Nc1ccnc(NC(=O)C2CCOC2)c1)c1c(Cl)cccc1Cl (stereo not drawn) [Example 42, N-(4-(2,6-dichlorobenzamido)-pyridin-2-yl)tetra-hydrofuran-3-carboxamide] | < 3.5 |
| O=C(Nc1cc(NC(=O)c2c(Cl)cccc2Cl)ccn1)c1ccccn1 [Example 44, N-(4-(2,6-dichlorobenzamido)-pyridin-2-yl)picolinamide] | < 3.5 |
| O=C(Nc1cc(NC(=O)c2c(Cl)cccc2Cl)ccn1)c1ncccn1 [Example 45, N-(4-(2,6-dichlorobenzamido)-pyridin-2-yl)pyrimidine-2-carboxamide] | < 3.5 |
| O=C(Nc1cc(NC(=O)c2c(Cl)cccc2Cl)ccn1)c1cnccn1 [Example 46, N-(4-(2,6-dichlorobenzamido)-pyridin-2-yl)pyrazine-2-carboxamide] | < 3.5 |
| O=C(Nc1cc(NC(=O)c2c(Cl)cccc2Cl)ccn1)c1cocn1 [Example 47, N-(4-(2,6-dichlorobenzamido)-pyridin-2-yl)oxazole-4-carboxamide] | < 3.5 |
| O=C(Nc1cc(NC(=O)c2c(Cl)cccc2Cl)ccn1)c1cncs1 [Example 48, N-(4-(2,6-dichlorobenzamido)-pyridin-2-yl)thiazole-5-carboxamide] | < 3.5 |

| SMILES | Ki [µM] |
| --- | --- |
| O=C(Nc1ccncc1)c1c(Cl)cc(C#CCO)cc1Cl [Example 50, 2,6-dichloro-4-(3-hydroxyprop-1-ynyl)-N-(pyridin-4-yl)benzamide] | < 3.5 |
| CCc1cc(Cl)c(C(=O)Nc2ccncc2)c(Cl)c1 [Example 51, 2,6-dichloro-4-ethyl-N-(pyridin-4-yl)benzamide] | < 3.5 |
| CCOC(=O)Nc1cc(NC(=O)c2c(Cl)cccc2Cl)ccn1 [Example 52, ethyl 4-(2,6-dichlorobenzamido)pyridin-2-ylcarbamate] | < 3.5 |
| O=C(Nc1ccnc(NCC2CC2)c1)c1c(Cl)cccc1Cl [Example 54, 2,6-dichloro-N-(2-(cyclo-propylmethylamino)-pyridin-4-yl)benzamide] | < 3.5 |
| O=C(Nc1ccnc(NCC2CC2)n1)c1c(Cl)cccc1Cl [Example 62, 2,6-dichloro-N-(2-(cyclopropylmethylamino)-pyrimidin-4-yl)benzamide337.2] | < 3.5 |
| O=C(Nc1ccncc1)c1c(Cl)cccc1Br [Example 69, 2-bromo-6-chloro-N-(pyridin-4-yl)benzamide] | < 3.5 |
| CN1CCN(C(=O)c2cc(Cl)c(C(=O)Nc3ccncc3)c(Cl)c2)CC1 [Example 70, 2,6-dichloro-4-(4-methylpiperazine-1-carbonyl)-N-(pyridin-4-yl)benzamide] | < 3.5 |
| Nc1cc(Cl)c(C(=O)Nc2ccncc2)c(Cl)c1 [Example 72, 4-amino-2,6-dichloro-N-(pyridin-4-yl)benzamide] | < 3.5 |
| O=Cc1cc(Cl)c(C(=O)Nc2ccncc2)c(Cl)c1 [Example 74, 2,6-dichloro-4-formyl-N-(pyridin-4-yl)benzamide] | < 3.5 |
| NC(=O)c1cc(Cl)c(C(=O)Nc2ccncc2)c(Cl)c1 [Example 75, 2,6-dichloro-N1-(pyridin-4-yl)terephthalamide] | < 3.5 |
| O=C(Nc1ccncc1)c1c(Cl)cc(CO)cc1Cl [Example 76, 2,6-dichloro-4-(hydroxymethyl)-N-(pyridin-4-yl)benzamide] | < 3.5 |
| CS(=O)(=O)Nc1cc(Cl)c(C(=O)Nc2ccncc2)c(Cl)c1 [Example 77, 2,6-dichloro-4-(methylsulfonamido)-N-(pyridin-4-yl)benzamide] | < 3.5 |
| CC(=O)Nc1cc(Cl)c(C(=O)Nc2ccncc2)c(Cl)c1 [Example 78, 4-acetamido-2,6-dichloro-N-(pyridin-4-yl)benzamide] | < 3.5 |
| O=C(Nc1cc(NC(=O)c2c(Cl)cccc2Cl)ccn1)c1ccsc1 [Example 87, N-(4-(2,6-dichloro-benzamido)pyridin-2-yl)thiophene-3-carboxamide] | < 3.5 |
| O=C(Nc1cc(NC(=O)c2c(Cl)cccc2Cl)ccn1)c1nccs1 [Example 88, N-(4-(2,6-dichloro-benzamido)pyridin-2-yl)thiazole-2-carboxamide] | < 3.5 |
| Nc1ncc(C(=O)Nc2cc(NC(=O)c3c(Cl)cccc3Cl)ccn2)s1 [Example 89, 2-amino-N-(4-(2,6-dichlorobenzamido)-pyridin-2-yl)thiazole-5-carboxamide] | < 3.5 |
| O=C(Nc1ccnc(NC(=O)C2CC2(F)F)c1)c1c(Cl)cccc1Cl (stereo not drawn) [Example 90, 2,6-dichloro-N-(2-(2,2-difluorocyclopropanecar-boxamido)pyridin-4-yl)benzamide] | < 3.5 |
| CCOC(=O)c1ccc(Nc2cc(NC(=O)c3c(Cl)cccc3Cl)ccn2)cc1 [Example 92, ethyl 4-(4-(2,6-dichlorobenzamido)-pyridin-2-ylamino)benzoate] | < 3.5 |
| CCOC(=O)c1ccc(Nc2cc(NC(=O)c3c(Cl)cccc3Cl)ccn2)nc1 [Example 94, ethyl 6-(4-(2,6-dichloro-benzamido)-pyridin-2-ylamino)nicotinate] | < 3.5 |
| O=C(O)c1ccc(Nc2cc(NC(=O)c3c(Cl)cccc3Cl)ccn2)nc1 [Example 95, 6-(4-(2,6-dichlorobenzamido)-pyridin-2-ylamino)-nicotinic acid] | < 3.5 |
| CN1CCN(C(=O)c2ccc(Nc3cc(NC(=O)c4c(Cl)cccc4Cl)ccn3)nc2)CC1 [Example 96, 2,6-dichloro-N-(2-(5-(4-methylpiperazine-1-carbonyl)pyridin-2-ylamino)pyridin-4-yl)-benzamide] | < 3.5 |

— patent US8486950B2, “Janus kinase inhibitor compounds and methods” (F. Hoffmann-La Roche AG, priority 2009, dated 2013)
